Our source for the binding values is article PMC10473198.

These are yes or no findings as the source states them, for the method shown. In cells and extracts the contact can be indirect. Binding can be weak; no strength is given. Tags and fused reporters may be left off the sequences shown.

In the assay the target is T1, GFP-RBP47b (Arabidopsis thaliana) (UniProt Q0WW84).
T1 sequence: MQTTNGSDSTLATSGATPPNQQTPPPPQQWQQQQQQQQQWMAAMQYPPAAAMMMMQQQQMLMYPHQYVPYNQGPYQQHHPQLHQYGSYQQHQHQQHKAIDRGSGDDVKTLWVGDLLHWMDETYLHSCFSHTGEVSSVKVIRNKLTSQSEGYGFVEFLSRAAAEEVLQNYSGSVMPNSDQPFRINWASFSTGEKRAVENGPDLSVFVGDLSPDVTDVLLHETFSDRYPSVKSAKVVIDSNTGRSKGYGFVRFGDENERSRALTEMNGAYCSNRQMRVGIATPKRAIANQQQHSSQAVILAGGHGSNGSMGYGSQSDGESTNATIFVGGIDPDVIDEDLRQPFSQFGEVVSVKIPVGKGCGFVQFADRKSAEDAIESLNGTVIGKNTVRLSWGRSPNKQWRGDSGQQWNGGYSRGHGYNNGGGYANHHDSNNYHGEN
In words: co-IP; GFP-based coprecipitation from lysate of CaMV-infected GFP-RBP47b Arabidopsis (21 dpi) with anti-GFP magnetic agarose beads, 60 min at 4 °C; buffer 100 mM Tris pH 8, 150 mM NaCl, 20 mM KCl, 2 mM MgCl2, 1% TX-100; immunoblot for P6 and P4; free GFP plants as control.

Cauliflower mosaic virus protein P4: the binding result was “no binding”.

Turning to Cauliflower mosaic virus protein P6, the binding result is “binds”.
